Source: paper doi:10.1101/2021.04.01.437949 (bioRxiv, 2021)

The chains behind the UniProt entries cited, without tags or fusion partners. Where a name states a change or a piece, a line headed by the entry shows the natural chain unless it says otherwise.
UniProt P22147: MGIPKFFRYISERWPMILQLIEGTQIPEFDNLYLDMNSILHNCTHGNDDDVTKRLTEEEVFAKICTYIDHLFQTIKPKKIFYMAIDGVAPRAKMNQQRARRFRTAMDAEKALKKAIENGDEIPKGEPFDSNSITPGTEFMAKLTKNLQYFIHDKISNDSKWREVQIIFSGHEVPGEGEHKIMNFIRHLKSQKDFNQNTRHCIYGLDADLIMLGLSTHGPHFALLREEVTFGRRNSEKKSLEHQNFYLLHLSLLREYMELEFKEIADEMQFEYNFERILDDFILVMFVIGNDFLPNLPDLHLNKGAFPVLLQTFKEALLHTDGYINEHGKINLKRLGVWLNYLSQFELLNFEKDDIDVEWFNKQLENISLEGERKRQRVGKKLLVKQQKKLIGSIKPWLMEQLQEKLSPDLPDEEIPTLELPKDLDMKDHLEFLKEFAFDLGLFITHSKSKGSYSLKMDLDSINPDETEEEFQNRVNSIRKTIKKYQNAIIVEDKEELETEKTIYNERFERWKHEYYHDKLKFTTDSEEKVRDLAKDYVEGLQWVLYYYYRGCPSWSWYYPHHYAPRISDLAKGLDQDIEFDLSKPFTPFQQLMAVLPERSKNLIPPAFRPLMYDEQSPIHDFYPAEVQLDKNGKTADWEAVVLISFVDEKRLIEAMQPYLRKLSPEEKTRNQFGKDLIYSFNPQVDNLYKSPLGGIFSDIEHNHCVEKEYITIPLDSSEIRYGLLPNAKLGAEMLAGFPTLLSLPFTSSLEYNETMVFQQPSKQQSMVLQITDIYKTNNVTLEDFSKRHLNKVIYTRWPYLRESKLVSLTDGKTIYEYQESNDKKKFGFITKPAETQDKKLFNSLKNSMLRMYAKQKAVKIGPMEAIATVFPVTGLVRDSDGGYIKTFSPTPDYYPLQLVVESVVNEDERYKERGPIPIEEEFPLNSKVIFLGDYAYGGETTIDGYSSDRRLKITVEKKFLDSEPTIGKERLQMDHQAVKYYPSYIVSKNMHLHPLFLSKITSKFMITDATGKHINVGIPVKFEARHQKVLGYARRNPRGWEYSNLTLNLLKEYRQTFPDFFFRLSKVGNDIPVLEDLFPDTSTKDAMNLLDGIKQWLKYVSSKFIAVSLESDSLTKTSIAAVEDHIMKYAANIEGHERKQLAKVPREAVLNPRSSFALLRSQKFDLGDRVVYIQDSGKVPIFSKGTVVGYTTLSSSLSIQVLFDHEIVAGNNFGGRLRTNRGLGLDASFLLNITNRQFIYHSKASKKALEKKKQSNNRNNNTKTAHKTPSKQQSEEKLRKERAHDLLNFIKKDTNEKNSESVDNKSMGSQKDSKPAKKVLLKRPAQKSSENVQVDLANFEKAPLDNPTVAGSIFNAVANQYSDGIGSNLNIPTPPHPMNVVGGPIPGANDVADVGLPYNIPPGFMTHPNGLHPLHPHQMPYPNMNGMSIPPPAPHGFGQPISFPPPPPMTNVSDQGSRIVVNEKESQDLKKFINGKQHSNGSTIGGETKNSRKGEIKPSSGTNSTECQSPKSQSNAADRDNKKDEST

B1: recombinant Kap120-6xHis (natural protein, S. cerevisiae, UniProt Q02932 1-1032, looked up)
chain: MASSLNELNLVQVLEQASNPQHIRSDVQKLAEQQLRQWETQAGFHYLLQSIYLNLSNSLQIRWLAVIQFKNGVDKYWRSTRINAIPKDEKASIRGRLFEMIDEQNNQLCIQNAQASARIARLDFPVEWPTLFEDLENLLNDEIIRKDSVKIYNILMHINQIVKVLGTARIGRCRPAMQSKVPLILPLIVRIYLQSFEEWTTSSNLNYEDLSSLQVSYLALKVLRRIICEGYDRPQTDQSVCDFIKLSVSHFEMLISNHENFKKFDIYEKFIKCLGKLYFNLVTGSPANFILLPCSTQILITYTRLIFDKAPKVYRENSDVTGDFWEQTAIRGLLILKRVINFIHKKGAITLKARSDKLTIDASINKINTEFLNENLITRLVDTLMEWYLRLRPTELENWFMDPEEWINEQMATSYEYQIRPCAENVFQDLMNTFSELLVPYLLKKIENDASKLSNSLDDFLRKDAIYASFQLSASAVSEMVDFDRLLIQVFLPEATNTNISGDELRIIRRRVALIINEWSTVKCSEESKSLCYKLFTNFLTDEDDKVVLLTTVQTVRTMVDDWNFNKDTFQPFLTENVHLLLRKILPSVSLTETRLYVLNTLSDIIIQTKPLISRDLLVEILQIIPNLWEIATNNASEAILANALLRLLRNLVSSLGSQSHLTWDIAIPVVALACDPSSMQYQLLSEDGYELWGMLLQNFSSHDQEFDDKFVELVPFLKYGIETHTEILPTLLEIIKSYALILNPVDFFSNNTFQDIFKQMSKYLLKLREDSFQLVLEIWEILILSNESDYENLLLQKFYETGVLSALFDAIFLEEAPSSYLCSQIIQIIARISYVNPDALMTFLATYHDNLPTSNENARMPESIRKIVSKDQTYDSVVNKLLTGWIVCFRDIFDPKFKKVHILGISSLLRTGLVPILTEFSSIASLWIEMLEEINETNRGDCEKYHLNDIVTEQSIAFHPLTAEQLRYHQLCKNNDPVHNISLKDFISQSMEYLESHLGVERYQEFLKTINPSLLENLQMFLSIQPQEARP

Key:
Assay in all cases: pull-down
[1] = target: B1
[2] = target: FLAG-tagged Xrn1^ΔNLS1 (S. cerevisiae) (UniProt P22147)
[3] = target: FLAG-tagged Xrn1^ΔNLS2 (S. cerevisiae) (UniProt P22147)

Row | binding [1] | binding [2] | binding [3] | Molecule
1 | binds |  |  | FLAG-tagged Xrn1^ΔNLS2 (from UniProt P22147) (enzyme)
2 | binds |  |  | FLAG-tagged Xrn1^ΔNLS1 (from UniProt P22147) (enzyme)
3 |  | binds | binds | B1

No constants are given. Whether binding was seen depends on the method and setting. A result given as binding can be weak or reduced; the word gives no strength. Where a sequence is shown, tags or fusion partners need not be part of it.
